Results on 1 substance are retold here after patent US11879021B2 (UNIVERSITÉ DE MONTRÉAL, priority 2016, dated 2024).

The series can be described thus: general procedure: Fmoc solid-phase peptide synthesis; polystyrene Rink amide resin (0.50 mmol/g); CEM SpheriTide resin (0.85 mmol/g) for 26, 27 and 34; DIC/HOBt. Conditions: whole synthesis.

Consider “Boc-Val-Aza-Pra-D-Trp(Boc)-Ala-Trp(Boc)-D-Phe-Lys(o-NBS, Allyl)-Rink Amide Resin 22c”, for which the difficulty met entry is “showed incomplete coupling despite repetition”.
